{
  "sequences": {"note": "Sequences of proteins named here, by UniProt entry; tags and fusion partners are left off. Residues count along the entry.", "UniProt P03952, residues 20-638": "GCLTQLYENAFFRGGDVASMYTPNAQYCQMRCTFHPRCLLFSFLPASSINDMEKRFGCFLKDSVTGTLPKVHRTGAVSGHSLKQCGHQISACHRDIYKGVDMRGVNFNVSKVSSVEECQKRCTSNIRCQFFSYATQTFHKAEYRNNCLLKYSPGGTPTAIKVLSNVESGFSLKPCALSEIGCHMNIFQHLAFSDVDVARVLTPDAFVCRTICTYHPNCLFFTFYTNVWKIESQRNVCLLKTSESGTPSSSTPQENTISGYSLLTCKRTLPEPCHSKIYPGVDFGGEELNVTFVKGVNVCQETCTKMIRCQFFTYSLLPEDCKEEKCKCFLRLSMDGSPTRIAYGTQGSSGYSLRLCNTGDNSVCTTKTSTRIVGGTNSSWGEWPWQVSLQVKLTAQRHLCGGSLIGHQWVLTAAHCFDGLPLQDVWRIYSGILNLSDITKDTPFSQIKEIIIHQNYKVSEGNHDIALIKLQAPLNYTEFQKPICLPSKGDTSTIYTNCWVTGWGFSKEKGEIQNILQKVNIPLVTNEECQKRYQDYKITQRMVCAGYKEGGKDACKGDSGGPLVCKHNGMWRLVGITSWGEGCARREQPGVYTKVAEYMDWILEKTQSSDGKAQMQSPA"},
  "source": "patent US20040053206A1",
  "about": "(DYAX, published 2004)",
  "binders": {"B1": {"name": "KKII/3#7 (designed binder)", "chain": "MHSFCAFKADDGHCKANHQRFFFNIFTRQCEEFSYGGCGGNQNRFESLEECKKMCTRD"}, "B2": {"name": "KKII/3#8 (designed binder)", "chain": "B1 chain"}},
  "target": "human plasma kallikrein (human, UniProt P03952 20-638)",
  "assay": "phage display selection",
  "note": "Results are given in words; binding and its absence hold for the method and conditions named. Some entries that bind do so weakly or less than the wild type.",
  "data": [
    {"binder": "B1", "values": [
      {"measurement": "binding", "value": "binds"}
    ]},
    {"binder": "B2", "values": [
      {"measurement": "binding", "value": "binds"}
    ]}
  ]
}
